Here are results for 2 substances from PMC8840716.

The chains behind the UniProt entries cited, without tags or fusion partners. Where a name states a change or a piece, a line headed by the entry shows the natural chain unless it says otherwise. Residues count along the entry.
UniProt Q6X5Y6: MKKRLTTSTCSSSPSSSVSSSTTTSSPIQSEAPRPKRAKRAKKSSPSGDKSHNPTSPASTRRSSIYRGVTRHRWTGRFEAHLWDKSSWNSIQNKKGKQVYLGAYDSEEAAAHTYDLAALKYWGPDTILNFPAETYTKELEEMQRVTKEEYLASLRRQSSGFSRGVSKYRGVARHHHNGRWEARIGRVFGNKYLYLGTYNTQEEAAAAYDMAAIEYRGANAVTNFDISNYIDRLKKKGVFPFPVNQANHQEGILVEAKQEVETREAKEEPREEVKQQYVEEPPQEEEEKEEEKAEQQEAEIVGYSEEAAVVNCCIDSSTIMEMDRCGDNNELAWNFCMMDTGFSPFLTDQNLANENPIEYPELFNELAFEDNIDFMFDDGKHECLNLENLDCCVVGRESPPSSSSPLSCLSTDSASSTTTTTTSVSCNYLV
AtWRI1^1-306 (DNA binding domain fusion, yeast two-hybrid bait): residues 1-306 of Q6X5Y6
AtWRI1^58-240 (DNA binding domain fusion, yeast two-hybrid bait): residues 58-240 of Q6X5Y6
UniProt Q9LSD5: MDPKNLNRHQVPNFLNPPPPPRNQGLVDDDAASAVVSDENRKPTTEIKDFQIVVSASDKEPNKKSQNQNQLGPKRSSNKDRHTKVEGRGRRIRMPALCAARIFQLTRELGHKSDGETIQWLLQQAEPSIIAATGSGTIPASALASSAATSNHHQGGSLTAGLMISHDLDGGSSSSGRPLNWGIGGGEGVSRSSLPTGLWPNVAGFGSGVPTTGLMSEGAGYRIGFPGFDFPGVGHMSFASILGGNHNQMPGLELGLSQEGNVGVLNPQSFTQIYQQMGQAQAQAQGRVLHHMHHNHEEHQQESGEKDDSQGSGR

For experiment [1], the target named is AtWRI1^58-240 (DNA binding domain fusion, yeast two-hybrid bait) (Arabidopsis) (UniProt Q6X5Y6). In words: two-hybrid; BD-AtWRI1 variants (pDEST32, yeast AH109) as bait, AD-TCP20 (pDEST22, yeast Y187) as prey; mated, plated on -Leu/-Trp, streaked onto stringent selective -Leu/-Trp/-His medium; library screen and direct test.
For experiment [2], the target named is AtWRI1^1-306 (DNA binding domain fusion, yeast two-hybrid bait) (Arabidopsis) (UniProt Q6X5Y6). The experiment is described as above.
Experiment [3] has as its target nYFP-AtWRI1 (Arabidopsis) (UniProt Q6X5Y6). Nature of the experiment: split reporter; BiFC: nYFP and cYFP fusions co-produced in N. benthamiana leaves by agroinfiltration (with P19); YFP fluorescence by confocal microscopy 2-3 days after infiltration.

Results are given in words; binding and its absence hold for the method and conditions named. For part of these data: In cells and extracts the contact can be indirect. Some results given as binding are weak or reduced against the parent protein; the word gives no strength.

For the substance “activation domain (AD)-TCP20 fusion (yeast two-hybrid prey) (from UniProt Q9LSD5 1-314)”, the binding entry in experiment [1] and in experiment [2] was “binds” each time.

With cYFP-TCP20 (from UniProt Q9LSD5 1-314), the binding entry in experiment [3] was “binds”.
